Laboratory results: patent publication US20240425456A1, “DEGRADER” (ASKA PHARMACEUTICAL CO., LTD., priority 2021, published 2024)
Some results were stated once for a whole list of compounds, not compound by compound.

Chains of the proteins cited; added tags and fusions are not shown. Lines headed by an entry give the natural chain unless they say otherwise; changes in a name come on top.
UniProt P23458: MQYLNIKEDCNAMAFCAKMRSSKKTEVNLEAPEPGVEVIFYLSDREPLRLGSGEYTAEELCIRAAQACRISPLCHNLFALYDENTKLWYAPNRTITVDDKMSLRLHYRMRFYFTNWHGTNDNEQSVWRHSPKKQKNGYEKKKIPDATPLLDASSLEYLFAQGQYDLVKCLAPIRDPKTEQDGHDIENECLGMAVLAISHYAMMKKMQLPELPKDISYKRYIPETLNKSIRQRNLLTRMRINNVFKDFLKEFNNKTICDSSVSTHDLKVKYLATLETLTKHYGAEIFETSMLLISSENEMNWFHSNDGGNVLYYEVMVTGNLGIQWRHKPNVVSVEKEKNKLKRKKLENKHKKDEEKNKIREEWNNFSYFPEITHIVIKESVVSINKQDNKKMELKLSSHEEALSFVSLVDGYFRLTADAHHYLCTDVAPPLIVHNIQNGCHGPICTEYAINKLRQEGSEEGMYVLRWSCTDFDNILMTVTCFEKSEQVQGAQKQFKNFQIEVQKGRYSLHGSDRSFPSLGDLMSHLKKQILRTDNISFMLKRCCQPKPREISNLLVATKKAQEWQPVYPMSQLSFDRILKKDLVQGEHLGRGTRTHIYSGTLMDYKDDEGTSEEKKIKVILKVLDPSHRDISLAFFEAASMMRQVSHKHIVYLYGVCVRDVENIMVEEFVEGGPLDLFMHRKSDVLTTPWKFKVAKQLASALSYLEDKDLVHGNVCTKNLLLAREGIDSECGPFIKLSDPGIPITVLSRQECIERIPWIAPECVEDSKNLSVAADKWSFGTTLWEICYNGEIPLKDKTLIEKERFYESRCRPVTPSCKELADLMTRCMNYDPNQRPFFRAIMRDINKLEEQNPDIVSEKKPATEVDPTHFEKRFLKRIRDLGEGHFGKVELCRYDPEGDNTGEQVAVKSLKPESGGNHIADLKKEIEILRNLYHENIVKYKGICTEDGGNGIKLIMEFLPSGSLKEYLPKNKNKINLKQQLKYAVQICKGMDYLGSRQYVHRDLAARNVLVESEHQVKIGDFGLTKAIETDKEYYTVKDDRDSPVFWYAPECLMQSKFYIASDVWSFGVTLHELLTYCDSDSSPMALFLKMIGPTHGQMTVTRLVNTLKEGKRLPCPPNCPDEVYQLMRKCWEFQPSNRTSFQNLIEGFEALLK
UniProt O60674: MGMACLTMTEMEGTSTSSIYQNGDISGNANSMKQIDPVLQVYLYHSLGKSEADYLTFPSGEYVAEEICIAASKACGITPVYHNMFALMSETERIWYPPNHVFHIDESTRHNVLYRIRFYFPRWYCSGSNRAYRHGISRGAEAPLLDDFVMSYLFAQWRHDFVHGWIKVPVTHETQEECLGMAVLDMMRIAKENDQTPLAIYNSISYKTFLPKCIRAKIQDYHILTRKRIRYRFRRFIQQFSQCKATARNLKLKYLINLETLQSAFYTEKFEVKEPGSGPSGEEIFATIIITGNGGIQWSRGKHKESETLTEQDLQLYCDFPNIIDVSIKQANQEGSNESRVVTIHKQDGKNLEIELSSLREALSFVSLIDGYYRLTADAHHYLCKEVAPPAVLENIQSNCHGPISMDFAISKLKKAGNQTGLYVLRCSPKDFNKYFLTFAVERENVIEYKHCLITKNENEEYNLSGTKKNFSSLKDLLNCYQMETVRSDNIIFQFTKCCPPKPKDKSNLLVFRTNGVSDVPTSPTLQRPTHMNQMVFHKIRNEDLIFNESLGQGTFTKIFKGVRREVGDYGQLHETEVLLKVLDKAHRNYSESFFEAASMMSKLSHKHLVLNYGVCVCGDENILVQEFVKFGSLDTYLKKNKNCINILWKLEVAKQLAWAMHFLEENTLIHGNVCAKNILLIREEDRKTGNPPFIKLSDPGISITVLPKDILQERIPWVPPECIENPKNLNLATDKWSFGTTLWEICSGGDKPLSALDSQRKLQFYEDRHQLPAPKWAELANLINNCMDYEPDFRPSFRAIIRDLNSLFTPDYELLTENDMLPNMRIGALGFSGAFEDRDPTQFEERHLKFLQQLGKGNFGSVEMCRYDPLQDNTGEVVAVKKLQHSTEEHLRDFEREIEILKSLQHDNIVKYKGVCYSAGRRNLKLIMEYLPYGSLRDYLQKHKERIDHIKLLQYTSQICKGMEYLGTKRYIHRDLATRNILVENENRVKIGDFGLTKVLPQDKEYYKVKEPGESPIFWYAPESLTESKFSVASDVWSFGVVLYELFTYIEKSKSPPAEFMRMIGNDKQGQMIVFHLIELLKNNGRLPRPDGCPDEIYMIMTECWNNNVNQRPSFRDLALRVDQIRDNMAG
UniProt P29597: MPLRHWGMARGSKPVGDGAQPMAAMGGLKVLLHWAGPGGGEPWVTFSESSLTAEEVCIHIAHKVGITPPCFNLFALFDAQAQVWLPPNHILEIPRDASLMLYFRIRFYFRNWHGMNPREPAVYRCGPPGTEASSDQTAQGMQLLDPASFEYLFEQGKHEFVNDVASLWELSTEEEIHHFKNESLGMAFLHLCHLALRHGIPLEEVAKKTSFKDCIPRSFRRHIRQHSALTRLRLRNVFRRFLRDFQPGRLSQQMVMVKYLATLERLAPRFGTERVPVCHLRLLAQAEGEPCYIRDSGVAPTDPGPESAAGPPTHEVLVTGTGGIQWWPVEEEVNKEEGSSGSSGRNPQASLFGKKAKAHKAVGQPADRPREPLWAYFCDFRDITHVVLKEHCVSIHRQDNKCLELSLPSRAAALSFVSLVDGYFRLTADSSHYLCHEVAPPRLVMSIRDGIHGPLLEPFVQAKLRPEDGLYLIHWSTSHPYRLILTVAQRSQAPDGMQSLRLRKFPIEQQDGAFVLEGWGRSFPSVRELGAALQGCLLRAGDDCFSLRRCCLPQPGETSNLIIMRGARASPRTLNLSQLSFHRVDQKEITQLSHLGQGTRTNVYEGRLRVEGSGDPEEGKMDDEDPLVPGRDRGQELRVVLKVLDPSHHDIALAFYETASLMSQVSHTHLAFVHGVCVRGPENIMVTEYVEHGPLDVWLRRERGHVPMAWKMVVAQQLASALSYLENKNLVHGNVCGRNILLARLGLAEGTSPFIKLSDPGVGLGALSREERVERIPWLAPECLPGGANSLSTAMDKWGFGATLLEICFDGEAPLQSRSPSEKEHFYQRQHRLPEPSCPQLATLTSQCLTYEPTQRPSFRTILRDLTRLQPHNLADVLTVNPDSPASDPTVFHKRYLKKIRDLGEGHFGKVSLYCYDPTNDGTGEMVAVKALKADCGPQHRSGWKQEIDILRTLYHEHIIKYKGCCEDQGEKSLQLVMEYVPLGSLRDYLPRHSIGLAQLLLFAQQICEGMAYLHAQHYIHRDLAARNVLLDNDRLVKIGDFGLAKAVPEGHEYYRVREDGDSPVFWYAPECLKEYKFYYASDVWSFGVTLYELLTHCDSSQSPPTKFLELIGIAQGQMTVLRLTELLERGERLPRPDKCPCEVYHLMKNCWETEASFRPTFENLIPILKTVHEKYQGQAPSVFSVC

Experiments:
Type in all cases: cell-based
Settings in all cases: 1 μmol/L, 6 hours
[1] = target: T1, JAK1 (Homo sapiens, UniProt P23458); assay: Degradation-inducing effect on JAK in Jurkat cells (chemiluminescent Western blotting), JAK1
T1 construct: endogenous in cells; host or cells: Jurkat cells
Procedure: (§1) The degradation-inducing effect of the compound of the present invention on JAK family proteins was evaluated in vitro using Jurkat cells, of which cell line was derived from human leukemic T cells.
(§2) JAK1, JAK2, JAK3, and Tyk2-positive Jurkat cells were seeded at a density of 1×10^5 cells/mL on 10 cm diameter dishes and then cultured in RPMI 1640 medium (FUJIFILM Wako Pure Chemical: catalog number: 189-02025) containing 10% FBS (Thermo Fisher Scientific: catalog number: 10437-028) at 5% CO2 and 37° C. for 3 days. Then, each of the test compounds (compounds of Examples 1 to 11 and Comparative Examples 1 and 2) was added to the dish at a final concentration of 1 μmol/L, and the cells were cultured in the presence of the test compound for 6 hours. After that, the cell culture medium was collected in a 15 mL centrifuge tube (1000 rpm (240× g), room temperature, 5 min), followed by washing with PBS (1000 rpm (240× g), room temperature, 5 min). Then, the cells in the centrifuge tube were collected in a 1.5 mL tube (3000 rpm (860× g), 4° C., 5 min), lysed using RIPA buffer (25 mmol/L Tris-HCl (pH 7.4), 25 mmol/L NaCl, 0.5 mmol/L EGTA (pH 8.0), 0.1% SDS, 1% protease inhibitor), sonicated at ice temperature (cycles of [7.5 sec sonication, 5 sec off] for 5 min) and subjected to centrifugation (15000 rpm (21600× g), 4° C., 30 min). The thus-obtained supernatant was used as the protein solution. Using the BCA protein assay kit (Thermo Fisher Scientific: catalog number: 23225), the protein concentration of the protein solution of each test compound was measured according to the kit instructions, and then adjusted to 1.4 mg/mL with RIPA buffer. The thus-adjusted protein solutions were subjected to a fully automated Western blotting device (Simple Westerns Wes: proteinSimple) to detect the protein levels (JAK1, JAK2, JAK3, and Tyk2 as the target proteins, and GAPDH (Glyceraldehyde 3-phosphate dehydrogenase) as the internal standard protein) in the protein solutions by chemiluminescent Western blotting.
(§3) Furthermore, the luminescence levels of JAK1, JAK2, JAK3, and Tyk2 detected by chemiluminescent Western blotting were quantified numerically by using an analysis software (Compass software for Simple Western (version 4.0.0)) attached to the fully automated Western blotting device. The numerical values of the quantified luminescence levels were corrected by the protein levels of the internal standard protein, i.e., GAPDH, (target protein levels/GAPDH protein levels), and compared among the test compounds with dimethyl sulfoxide (DMSO) as 100%.

[2] = target: T2, JAK2 (Homo sapiens, UniProt O60674); assay: Degradation-inducing effect on JAK in Jurkat cells (chemiluminescent Western blotting), JAK2
T2 construct: endogenous in cells; host or cells: Jurkat cells
Procedure: as §1, §2, §3

[3] = target: T3, JAK3 (Homo sapiens, UniProt P52333); assay: Degradation-inducing effect on JAK in Jurkat cells (chemiluminescent Western blotting), JAK3
T3 construct: endogenous in cells; host or cells: Jurkat cells
T3 sequence (P52333 1-1124): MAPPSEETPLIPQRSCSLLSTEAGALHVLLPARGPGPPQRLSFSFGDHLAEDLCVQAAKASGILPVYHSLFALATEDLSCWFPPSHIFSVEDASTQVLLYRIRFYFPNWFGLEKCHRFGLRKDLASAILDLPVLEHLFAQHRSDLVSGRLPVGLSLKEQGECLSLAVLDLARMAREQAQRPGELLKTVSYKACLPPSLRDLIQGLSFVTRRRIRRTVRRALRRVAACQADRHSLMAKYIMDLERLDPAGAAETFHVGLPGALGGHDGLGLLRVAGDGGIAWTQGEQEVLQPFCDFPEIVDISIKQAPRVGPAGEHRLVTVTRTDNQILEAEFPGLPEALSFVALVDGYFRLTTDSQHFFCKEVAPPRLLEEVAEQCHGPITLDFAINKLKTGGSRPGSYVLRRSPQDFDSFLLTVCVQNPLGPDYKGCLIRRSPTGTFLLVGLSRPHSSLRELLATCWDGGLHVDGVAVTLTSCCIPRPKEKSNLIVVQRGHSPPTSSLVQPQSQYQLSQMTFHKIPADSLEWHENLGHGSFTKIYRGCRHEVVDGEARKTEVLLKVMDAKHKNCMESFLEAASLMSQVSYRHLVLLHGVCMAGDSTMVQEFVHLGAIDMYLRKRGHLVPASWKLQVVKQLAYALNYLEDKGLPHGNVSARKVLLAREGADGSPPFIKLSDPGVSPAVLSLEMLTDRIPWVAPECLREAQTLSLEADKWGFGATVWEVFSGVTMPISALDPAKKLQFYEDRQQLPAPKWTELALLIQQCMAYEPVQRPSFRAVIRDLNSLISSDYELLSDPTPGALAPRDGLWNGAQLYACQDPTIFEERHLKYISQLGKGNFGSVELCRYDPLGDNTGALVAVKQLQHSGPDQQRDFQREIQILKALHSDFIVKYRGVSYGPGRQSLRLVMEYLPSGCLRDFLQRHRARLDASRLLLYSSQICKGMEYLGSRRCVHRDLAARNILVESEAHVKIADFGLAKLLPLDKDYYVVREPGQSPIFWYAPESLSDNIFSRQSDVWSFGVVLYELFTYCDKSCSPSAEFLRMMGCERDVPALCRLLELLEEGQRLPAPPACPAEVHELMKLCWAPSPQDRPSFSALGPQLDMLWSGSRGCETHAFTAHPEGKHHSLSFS
Procedure: as §1, §2, §3

[4] = target: T4, Tyk2 (Homo sapiens, UniProt P29597); assay: Degradation-inducing effect on JAK in Jurkat cells (chemiluminescent Western blotting), Tyk2
T4 construct: endogenous in cells; host or cells: Jurkat cells
Procedure: as §1, §2, §3

SMILES | protein level of JAK1 (in words) [1] | protein level of JAK2 (in words) [2] | protein level of JAK3 (in words) [3] | protein level of Tyk2 (in words) [4]
CNC(=O)c1cnc(Nc2ccc(F)cn2)cc1Nc1cccc(C(=O)NCCCCCCCCCC(=O)N[C@H](C(=O)N2C[C@H](O)C[C@H]2C(=O)NCc2ccc(-c3scnc3C)cc2)C(C)(C)C)c1OC [Comparative Example 1, 6-((5-Fluoropyridin-2-yl)amino)-4-((3-((10-(((S)-1-((2S,4R)-4-hydroxy 2-((4-(4-methylthiazol-5-yl)benzyl)carbamoyl)pyrrolidin-1-yl)-3,3-dimethyl-1-oxobutan-2-yl)amino)-10-oxodecyl)carbamoyl)-2-methoxyphenyl)amino)-N-methylnicotinamide, reference compound] | not reduced | not reduced | not reduced | –
CNC(=O)c1cnc(Nc2ccc(C(=O)NCCCCCCCCCCCC(=O)N[C@H](C(=O)N3C[C@H](O)C[C@H]3C(=O)NCc3ccc(-c4scnc4C)cc3)C(C)(C)C)cn2)cc1Nc1cccc(C(=O)NC)c1OC [Example 7, 6-((5-((12-(((S)-1-((2S,4R)-4-Hydroxy-2-((4-(4-methylthiazol-5-yl)benzyl)carbamoyl)pyrrolidin-1-yl)-3,3-dimethyl-1-oxobutan-2-yl)amino)-12-oxododecyl)carbamoyl)pyridin-2-yl)amino)-4-((2-methoxy-3-(methylcarbamoyl)phenyl)amino)-N-methylnicotinamide] | not reduced | not reduced | not reduced | reduced
CNC(=O)c1cnc(Nc2ccc(C(=O)NCCCCCCCCC(=O)N[C@H](C(=O)N3C[C@H](O)C[C@H]3C(=O)NCc3ccc(-c4scnc4C)cc3)C(C)(C)C)cn2)cc1Nc1cccc(C(=O)NC)c1OC [Example 4, 6-((5-((9-(((S)-1-((2S,4R)-4-Hydroxy-2-((4-(4-methylthiazol-5-yl)benzyl)carbamoyl)pyrrolidin-1-yl)-3,3-dimethyl-1-oxobutan-2-yl)amino)-9-oxononyl)carbamoyl)pyridin-2-yl)amino)-4-((2-methoxy-3-(methylcarbamoyl)phenyl)amino)-N-methylnicotinamide] | not reduced | not reduced | not reduced | reduced
CNC(=O)c1cnc(Nc2ccc(C(=O)NCCCCCCCCCC(=O)N[C@H](C(=O)N3C[C@@H](O)C[C@H]3C(=O)NCc3ccc(-c4scnc4C)cc3)C(C)(C)C)cn2)cc1Nc1cccc(C(=O)NC)c1OC [Example 8, 6-((5-((10-(((S)-1-((2S,4S)-4-Hydroxy-2-((4-(4-methylthiazol-5-yl)benzyl)carbamoyl)pyrrolidin-1-yl)-3,3-dimethyl-1-oxobutan-2-yl)amino)-10-oxodecyl)carbamoyl)pyridin-2-yl)amino)-4-((2-methoxy-3-(methylcarbamoyl)phenyl)amino)-N-methylnicotinamide] | not reduced | not reduced | not reduced | –
CNC(=O)c1cnc(Nc2ccc(C(=O)NCCCCCCCCCC(=O)N[C@H](C(=O)N3C[C@H](O)C[C@H]3C(=O)NCc3ccc(-c4scnc4C)cc3)C(C)(C)C)cn2)cc1Nc1cccc(C(=O)NC)c1OC [Example 5, 6-((5-((10-(((S)-1-((2S,4R)-4-Hydroxy-2-((4-(4-methylthiazol-5-yl)benzyl)carbamoyl)pyrrolidin-1-yl)-3,3-dimethyl-1-oxobutan-2-yl)amino)-10-oxodecyl)carbamoyl)pyridin-2-yl)amino)-4-((2-methoxy-3-(methylcarbamoyl)phenyl)amino)-N-methylnicotinamide] | not reduced | not reduced | not reduced | reduced
CNC(=O)c1cnc(Nc2ccc(C(=O)NCCCCCCCCCC(=O)N[C@H](C(=O)N3C[C@H](O)C[C@H]3C(=O)NCc3ccc(-c4scnc4C)cc3)C(C)(C)C)cn2)cc1Nc1cccc(C(=O)NCCO)c1OC [Example 11, 6-((5-((10-(((S)-1-((2S,4R)-4-hydroxy-2-((4-(4-methylthiazol-5-yl)benzyl)carbamoyl)pyrrolidin-1-yl)-3,3-dimethyl-1-oxobutan-2-yl)amino)-10-oxodecyl)carbamoyl)pyridin-2-yl)amino)-4-((3-((2-hydroxyethyl)carbamoyl)-2-methoxyphenyl)amino)-N-methylnicotinamide] | not reduced | not reduced | not reduced | reduced
CNC(=O)c1cnc(Nc2ccc(C(=O)NCCCCCCCCCC(=O)N[C@H](C(=O)N3C[C@H](O)C[C@H]3C(=O)NCc3ccc(-c4scnc4C)cc3)C(C)(C)C)cn2)cc1Nc1cccc(-c2ncn(C)n2)c1OC [Example 10, 6-((5-((10-(((S)-1-((2S,4R)-4-hydroxy-2-((4-(4-methylthiazol-5-yl)benzyl)carbamoyl)pyrrolidin-1-yl)-3,3-dimethyl-1-oxobutan-2-yl)amino)-10-oxodecyl)carbamoyl)pyridin-2-yl)amino)-4-((2-methoxy-3-(1-methyl-^1H-1,2,4-triazol-3-yl)phenyl)amino)-N-methylnicotinamide] | not reduced | not reduced | not reduced | reduced
CNC(=O)c1cnc(Nc2ccc(F)cn2)cc1Nc1cccc(C(=O)OCCCCCCCCCC(=O)N[C@H](C(=O)N2C[C@H](O)C[C@H]2C(=O)NCc2ccc(-c3scnc3C)cc2)C(C)(C)C)c1OC [Comparative Example 2, 10-(((S)-1-((2S,4R)-4-Hydroxy 2-((4-(4-methylthiazol-5-yl)benzyl)carbamoyl)pyrrolidin-1-yl)-3,3-dimethyl-1-oxobutan-2-yl)amino)-10-oxodecyl 3-((2-((5-fluoropyridin-2-yl)amino)-5-(methylcarbamoyl)pyridin-4-yl)amino)-2-methoxybenzoate, reference compound] | not reduced | not reduced | not reduced | –
